Experimental data reported in article PMC3577660.
No constants are given. Whether binding was seen depends on the method and setting. In cells and extracts the contact can be indirect.

Target: eukaryotic initiation factor eIF4E (human (endogenous in Jurkat)), P06730
Assay: pull-down; 7-methyl GTP-sepharose 4B beads (cap analogue, holds eIF4E) incubated with 250 ug protein of Jurkat lysate in 500 ul lysis buffer (50 mM HEPES pH 7.5, 150 mM NaCl, 1% Triton X-100) for 2 h at 4°C, Western blot; cells non-irradiated or 24 h after 10 Gy
Details: remark: other sources report otherwise

B1: death associated protein 5, P78344 1-907 (protein)
chain: MESAIAEGGASRFSASSGGGGSRGAPQHYPKTAGNSEFLGKTPGQNAQKWIPARSTRRDDNSAANNSANEKERHDAIFRKVRGILNKLTPEKFDKLCLELLNVGVESKLILKGVILLIVDKALEEPKYSSLYAQLCLRLAEDAPNFDGPAAEGQPGQKQSTTFRRLLISKLQDEFENRTRNVDVYDKRENPLLPEEEEQRAIAKIKMLGNIKFIGELGKLDLIHESILHKCIKTLLEKKKRVQLKDMGEDLECLCQIMRTVGPRLDHERAKSLMDQYFARMCSLMLSKELPARIRFLLQDTVELREHHWVPRKAFLDNGPKTINQIRQDAVKDLGVFIPAPMAQGMRSDFFLEGPFMPPRMKMDRDPLGGLADMFGQMPGSGIGTGPGVIQDRFSPTMGRHRSNQLFNGHGGHIMPPTQSQFGEMGGKFMKSQGLSQLYHNQSQGLLSQLQGQSKDMPPRFSKKGQLNADEISLRPAQSFLMNKNQVPKLQPQITMIPPSAQPPRTQTPPLGQTPQLGLKTNPPLIQEKPAKTSKKPPPSKEELLKLTETVVTEYLNSGNANEAVNGVREMRAPKHFLPEMLSKVIILSLDRSDEDKEKASSLISLLKQEGIATSDNFMQAFLNVLDQCPKLEVDIPLVKSYLAQFAARAIISELVSISELAQPLESGTHFPLFLLCLQQLAKLQDREWLTELFQQSKVNMQKMLPEIDQNKDRMLEILEGKGLSFLFPLLKLEKELLKQIKLDPSPQTIYKWIKDNISPKLHVDKGFVNILMTSFLQYISSEVNPPSDETDSSSAPSKEQLEQEKQLLLSFKPVMQKFLHDHVDLQVSALYALQVHCYNSNFPKGMLLRFFVHFYDMEIIEEEAFLAWKEDITQEFPGKGKALFQVNQWLTWLETAEEEESEEEAD
**Q.** With B1 as the binder, how does the binding read?
**A.** Its binding is “no binding”.
